PMC5228031, “CDK4/6-dependent activation of DUB3 regulates cancer metastasis through SNAIL1” (Nature Communications, 2017)
Results are given in words; binding and its absence hold for the method and conditions named. In cells and extracts the contact can be indirect. Some results given as binding are weak or reduced against the parent protein; the word gives no strength.

Amino acid sequences for entries named in this document (tags omitted).
UniProt O95863: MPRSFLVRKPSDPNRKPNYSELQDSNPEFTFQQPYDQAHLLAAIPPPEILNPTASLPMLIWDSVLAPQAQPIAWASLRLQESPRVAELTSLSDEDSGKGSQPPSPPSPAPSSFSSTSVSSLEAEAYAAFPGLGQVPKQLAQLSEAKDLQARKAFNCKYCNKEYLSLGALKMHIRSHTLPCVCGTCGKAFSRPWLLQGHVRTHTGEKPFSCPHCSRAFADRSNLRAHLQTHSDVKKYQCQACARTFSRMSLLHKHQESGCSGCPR
UniProt Q00534: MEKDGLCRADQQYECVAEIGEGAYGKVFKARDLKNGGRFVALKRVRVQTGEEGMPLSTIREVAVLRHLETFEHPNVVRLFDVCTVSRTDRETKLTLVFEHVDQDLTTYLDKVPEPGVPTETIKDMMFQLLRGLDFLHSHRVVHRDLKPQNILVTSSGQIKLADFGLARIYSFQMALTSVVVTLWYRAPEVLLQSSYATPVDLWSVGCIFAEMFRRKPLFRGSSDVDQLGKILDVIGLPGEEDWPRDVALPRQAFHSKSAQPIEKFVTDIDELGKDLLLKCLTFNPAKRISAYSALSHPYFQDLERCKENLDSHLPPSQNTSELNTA

Experiments:
[1] = target: T1, deubiquitinating enzyme 3 (DUB3), endogenous (human (endogenous in MDA-MB-231 and BT-549)) (UniProt Q6R6M4); assay: co-IP; endogenous proteins; cell lysates (MDA-MB-231; BT-549 too for SNAIL1-DUB3) immunoprecipitated with control IgG, anti-SNAIL1 or anti-DUB3 antibodies, immunoprecipitates blotted
T1 sequence: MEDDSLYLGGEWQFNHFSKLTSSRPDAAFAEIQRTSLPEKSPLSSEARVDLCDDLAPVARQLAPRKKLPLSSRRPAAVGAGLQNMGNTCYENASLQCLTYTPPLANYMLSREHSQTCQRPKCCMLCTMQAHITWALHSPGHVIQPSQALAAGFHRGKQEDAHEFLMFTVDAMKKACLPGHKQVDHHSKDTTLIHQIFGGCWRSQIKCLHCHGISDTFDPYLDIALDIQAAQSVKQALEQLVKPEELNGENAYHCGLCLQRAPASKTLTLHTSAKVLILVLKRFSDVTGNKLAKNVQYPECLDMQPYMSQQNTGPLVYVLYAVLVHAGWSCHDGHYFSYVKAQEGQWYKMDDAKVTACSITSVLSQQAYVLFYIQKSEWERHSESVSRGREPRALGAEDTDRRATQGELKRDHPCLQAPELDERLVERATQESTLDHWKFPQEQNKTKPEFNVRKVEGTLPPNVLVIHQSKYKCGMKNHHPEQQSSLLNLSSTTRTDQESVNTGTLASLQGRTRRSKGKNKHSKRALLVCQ

[2] = target: SNAIL1 (endogenous) (human (endogenous in MDA-MB-231 and BT-549)) (UniProt O95863); assay: as above

Question: For “CDK6 (endogenous) (from UniProt Q00534 1-326) (enzyme)”, which binding [1] is on record?
Answer: binds

Question: How did the binding [1] turn out when “SNAIL1 (endogenous) (from UniProt O95863 1-264)” was run?
Answer: binds

B1: deubiquitinating enzyme 3 (DUB3), endogenous (enzyme, UniProt Q6R6M4 1-530)
chain: MEDDSLYLGGEWQFNHFSKLTSSRPDAAFAEIQRTSLPEKSPLSSEARVDLCDDLAPVARQLAPRKKLPLSSRRPAAVGAGLQNMGNTCYENASLQCLTYTPPLANYMLSREHSQTCQRPKCCMLCTMQAHITWALHSPGHVIQPSQALAAGFHRGKQEDAHEFLMFTVDAMKKACLPGHKQVDHHSKDTTLIHQIFGGCWRSQIKCLHCHGISDTFDPYLDIALDIQAAQSVKQALEQLVKPEELNGENAYHCGLCLQRAPASKTLTLHTSAKVLILVLKRFSDVTGNKLAKNVQYPECLDMQPYMSQQNTGPLVYVLYAVLVHAGWSCHDGHYFSYVKAQEGQWYKMDDAKVTACSITSVLSQQAYVLFYIQKSEWERHSESVSRGREPRALGAEDTDRRATQGELKRDHPCLQAPELDERLVERATQESTLDHWKFPQEQNKTKPEFNVRKVEGTLPPNVLVIHQSKYKCGMKNHHPEQQSSLLNLSSTTRTDQESVNTGTLASLQGRTRRSKGKNKHSKRALLVCQ
Question: For B1, which binding [2] is on record?
Answer: binds
